Results from PMC6042961.

B1: KIF1-binding protein (protein, UniProt Q96EK5 1-621)
chain: MANVPWAEVCEKFQAALALSRVELHKNPEKEPYKSKYSARALLEEVKALLGPAPEDEDERPEAEDGPGAGDHALGLPAEVVEPEGPVAQRAVRLAVIEFHLGVNHIDTEELSAGEEHLVKCLRLLRRYRLSHDCISLCIQAQNNLGILWSEREEIETAQAYLESSEALYNQYMKEVGSPPLDPTERFLPEEEKLTEQERSKRFEKVYTHNLYYLAQVYQHLEMFEKAAHYCHSTLKRQLEHNAYHPIEWAINAATLSQFYINKLCFMEARHCLSAANVIFGQTGKISATEDTPEAEGEVPELYHQRKGEIARCWIKYCLTLMQNAQLSMQDNIGELDLDKQSELRALRKKELDEEESIRKKAVQFGTGELCDAISAVEEKVSYLRPLDFEEARELFLLGQHYVFEAKEFFQIDGYVTDHIEVVQDHSALFKVLAFFETDMERRCKMHKRRIAMLEPLTVDLNPQYYLLVNRQIQFEIAHAYYDMMDLKVAIADRLRDPDSHIVKKINNLNKSALKYYQLFLDSLRDPNKVFPEHIGEDVLRPAMLAKFRVARLYGKIITADPKKELENLATSLEHYKFIVDYCEKHPEAAQEIEVELELSKEMVSLLPTKMERFRTKMALT
B2: Semaphorin-4F (protein, UniProt O95754 35-770)
chain: RVPRSVPRTSLPISEADSCLTRFAVPHTYNYSVLLVDPASHTLYVGARDTIFALSLPFSGERPRRIDWMVPEAHRQNCRKKGKKEDECHNFVQILAIANASHLLTCGTFAFDPKCGVIDVSRFQQVERLESGRGKCPFEPAQRSAAVMAGGVLYAATVKNYLGTEPIITRAVGRAEDWIRTDTLPSWLNAPAFVAAVALSPAEWGDEDGDDEIYFFFTETSRAFDSYERIKVPRVARVCAGDLGGRKTLQQRWTTFLKADLLCPGPEHGRASSVLQDVAVLRPELGAGTPIFYGIFSSQWEGATISAVCAFRPQDIRTVLNGPFRELKHDCNRGLPVVDNDVPQPRPGECITNNMKLRHFGSSLSLPDRVLTFIRDHPLMDRPVFPADGHPLLVTTDTAYLRVVAHRVTSLSGKEYDVLYLGTEDGHLHRAVRIGAQLSVLEDLALFPEPQPVENMKLYHSWLLVGSRTEVTQVNTTNCGRLQSCSECILAQDPVCAWSFRLDECVAHAGEHRGLVQDIESADVSSLCPKEPGERPVVFEVPVATAAHVVLPCSPSSAWASCVWHQPSGVTALTPRRDGLEVVVTPGAMGAYACECQEGGAAHVVAAYSLVWGSQRDAPSRAHTVGAGLAGFFLGILAASLTLILIGRRQQRRRQRELLARDKVGLDLGAPPSGTTSYSQDPPSPSPEDERLPLALAKRGSGFGGFSPPFLLDPCPSPAHIRLTGAPLATCDETSI
B3: Nuclear pore complex protein Nup50 (protein, UniProt Q9UKX7 1-468)
chain: MAKRNAEKELTDRNWDQEDEAEEVGTFSMASEEVLKNRAIKKAKRRNVGFESDTGGAFKGFKGLVVPSGGGRFSGFGSGAGGKPLEGLSNGNNITSAPPFASAKAAADPKVAFGSLAANGPTTLVDKVSNPKTNGDSQQPSSSGLASSKACVGNAYHKQLAALNCSVRDWIVKHVNTNPLCDLTPIFKDYEKYLANIEQQHGNSGRNSESESNKVAAETQSPSLFGSTKLQQESTFLFHGNKTEDTPDKKMEVASEKKTDPSSLGATSASFNFGKKVDSSVLGSLSSVPLTGFSFSPGNSSLFGKDTTQSKPVSSPFPTKPLEGQAEGDSGECKGGDEEENDEPPKVVVTEVKEEDAFYSKKCKLFYKKDNEFKEKGIGTLHLKPTANQKTQLLVRADTNLGNILLNVLIPPNMPCTRTGKNNVLIVCVPNPPIDEKNATMPVTMLIRVKTSEDADELHKILLEKKDA
B4: endogenous FRMD8 (protein, UniProt Q9BZ67 1-464)
chain: MDGTEGSAGQPGPAERSHRSSVSSVGARAADVLVYLADDTVVPLAVENLPSLSAHELHRAVREVLQLPDIALDVFALWLVSPLLEVQLKPKHQPYKLGRQWPELLLRFTSAPDDDVAMDEPFLQFRRNVFFPKRRELQIHDEEVLRLLYEEAKGNVLAARYPCDVEDCEALGALVCRVQLGPYQPGRPAACDLREKLDSFLPAHLCKRGQSLFAALRGRGARAGPGEQGLLNAYRQVQEVSSDGGCEAALGTHYRAYLLKCHELPFYGCAFFHGEVDKPAQGFLHRGGRKPVSVAISLEGVHVIDSREKHVLLGLRFQELSWDHTSPEEEEPILWLEFDGDSEGTPVNKLLKIYSKQAELMSSLIEYCIELSQAAEPAGPQDSATGSPSDPSSSLAPVQRPKLRRQGSVVSSRIQHLSTIDYVEDGKGIRRVKPKRTTSFFSRQLSLGQGSYTVVQPGDSLEQG

Each binder was assayed against T1, human iRhom2-3xHA (human) (UniProt Q6PJF5) (assay: affinity purification with mass spectrometry; anti-HA immunoprecipitation from HEK293T cells stably expressing human iRhom2-3xHA; bead eluates analysed by label-free mass spectrometry; UNC93B1-3xHA as negative control; three biological replicates).
T1 sequence: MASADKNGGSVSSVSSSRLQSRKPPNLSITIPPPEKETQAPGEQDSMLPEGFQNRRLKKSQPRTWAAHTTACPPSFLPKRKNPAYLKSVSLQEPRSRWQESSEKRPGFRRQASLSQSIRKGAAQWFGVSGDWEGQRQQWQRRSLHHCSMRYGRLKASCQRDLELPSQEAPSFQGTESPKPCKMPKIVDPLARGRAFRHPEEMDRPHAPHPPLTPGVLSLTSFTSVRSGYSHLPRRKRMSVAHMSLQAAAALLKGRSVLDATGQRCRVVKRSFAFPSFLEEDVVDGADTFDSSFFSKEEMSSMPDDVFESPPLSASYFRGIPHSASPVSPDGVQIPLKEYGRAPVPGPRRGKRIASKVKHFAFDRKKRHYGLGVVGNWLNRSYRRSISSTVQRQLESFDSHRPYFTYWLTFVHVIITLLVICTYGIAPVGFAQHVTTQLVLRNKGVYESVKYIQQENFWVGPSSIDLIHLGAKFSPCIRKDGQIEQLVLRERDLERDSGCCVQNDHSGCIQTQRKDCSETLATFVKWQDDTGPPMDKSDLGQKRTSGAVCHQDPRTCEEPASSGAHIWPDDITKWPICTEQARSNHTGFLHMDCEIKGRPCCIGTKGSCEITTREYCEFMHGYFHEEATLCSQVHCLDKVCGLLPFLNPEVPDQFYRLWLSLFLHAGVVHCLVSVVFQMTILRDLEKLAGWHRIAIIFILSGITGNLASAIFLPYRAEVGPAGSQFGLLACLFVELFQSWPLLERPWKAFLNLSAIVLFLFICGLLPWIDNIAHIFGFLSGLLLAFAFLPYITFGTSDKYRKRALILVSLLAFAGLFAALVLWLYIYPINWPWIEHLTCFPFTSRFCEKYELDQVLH

binding, binds:
B1
B2
B3
B4

These are yes or no findings as the source states them, for the method shown. Binding seen in cells or lysates may run through a third protein. These calls come from enrichment with a bait or labelling near it, and not all partners need be listed.
